No constants are given. Whether binding was seen depends on the method and setting. Binding can be weak; no strength is given.
Biological target: T1, TcdB1 (B-subunit of the Photorhabdus Tcd toxin complex) (Photorhabdus luminescens strain W14) (UniProt Q93EP6)
T1 sequence: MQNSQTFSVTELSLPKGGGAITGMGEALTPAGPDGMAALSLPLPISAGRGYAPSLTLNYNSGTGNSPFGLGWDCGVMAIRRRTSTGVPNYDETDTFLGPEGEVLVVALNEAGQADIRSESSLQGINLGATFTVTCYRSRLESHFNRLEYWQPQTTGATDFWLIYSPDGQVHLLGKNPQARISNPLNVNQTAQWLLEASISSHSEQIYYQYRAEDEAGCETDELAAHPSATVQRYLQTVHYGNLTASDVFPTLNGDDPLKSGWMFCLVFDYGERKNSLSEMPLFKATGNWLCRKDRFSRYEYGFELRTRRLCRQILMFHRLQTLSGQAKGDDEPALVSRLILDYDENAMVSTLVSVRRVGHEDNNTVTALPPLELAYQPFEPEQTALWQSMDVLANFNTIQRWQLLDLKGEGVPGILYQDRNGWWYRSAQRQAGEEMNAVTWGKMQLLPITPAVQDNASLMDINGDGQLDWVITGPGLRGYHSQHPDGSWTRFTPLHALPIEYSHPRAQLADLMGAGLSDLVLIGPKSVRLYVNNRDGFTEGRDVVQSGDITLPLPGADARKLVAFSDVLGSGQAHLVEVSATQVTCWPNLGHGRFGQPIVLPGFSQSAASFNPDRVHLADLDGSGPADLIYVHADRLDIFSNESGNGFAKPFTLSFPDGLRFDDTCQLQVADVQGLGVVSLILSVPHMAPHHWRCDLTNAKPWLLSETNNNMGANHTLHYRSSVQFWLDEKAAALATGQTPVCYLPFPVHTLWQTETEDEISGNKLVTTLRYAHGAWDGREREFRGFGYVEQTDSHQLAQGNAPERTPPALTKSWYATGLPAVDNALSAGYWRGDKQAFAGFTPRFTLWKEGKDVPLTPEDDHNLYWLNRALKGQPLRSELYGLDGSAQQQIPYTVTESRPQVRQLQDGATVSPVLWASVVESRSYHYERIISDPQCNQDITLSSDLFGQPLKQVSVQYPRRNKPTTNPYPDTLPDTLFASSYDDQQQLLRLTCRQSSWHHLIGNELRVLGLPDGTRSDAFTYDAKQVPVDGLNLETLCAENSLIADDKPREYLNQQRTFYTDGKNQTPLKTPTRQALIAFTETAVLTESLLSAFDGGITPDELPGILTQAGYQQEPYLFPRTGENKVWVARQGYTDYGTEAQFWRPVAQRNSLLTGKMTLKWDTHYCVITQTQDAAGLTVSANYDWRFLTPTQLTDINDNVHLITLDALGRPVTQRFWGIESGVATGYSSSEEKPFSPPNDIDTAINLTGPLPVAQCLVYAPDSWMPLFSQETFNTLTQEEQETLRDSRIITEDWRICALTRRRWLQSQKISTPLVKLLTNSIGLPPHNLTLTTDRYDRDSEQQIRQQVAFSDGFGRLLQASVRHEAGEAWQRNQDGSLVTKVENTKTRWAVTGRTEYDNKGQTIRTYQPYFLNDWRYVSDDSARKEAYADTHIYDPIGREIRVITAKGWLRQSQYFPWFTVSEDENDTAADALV
Assay: two-dimensional gel electrophoresis with MALDI-TOF of the spots; total cell protein of E. coli co-producing TcdB1 and TccC1 (pBC1), compared with pB; spots identified by MALDI-TOF

For “TccC1 (C-subunit of the Photorhabdus toxin complex) (P. luminescens)”, the binding was “binds”.
